Test system: Primary human MSCs
Assay: EV secretion per cell from MSCs on hydrogel substrates, nanoparticle tracking analysis
Type: cell-based
Details: 3 μM Mn2+ or 200 nM EMD 121974 treatment
Experimental: Cell Seeding on Hydrogels. Hydrogel discs were placed in ultra-low binding polystyrene well plates (Corning) to ensure cells attach to hydrogels and not the plate surface. Hydrogels were washed with Hank's buffered salt solution (HBSS, Thermo Fisher Scientific) for at least 3 days before seeding cells. Cells were seeded at a low density (25 cells/mm^2). After seeding, hydrogels were washed thoroughly to remove unattached cells. Drug treatments of 3 μM MnCl2 (Thermo Fisher Scientific), 200 nM EMD 121974 sold under the tradename Cilengitide® (Cayman) and 5 μM CK869 (Cayman) were applied during and after cell adhesion to substrates. […] After incubation at room temperature (RT) for 10 minutes, the samples were analyzed for live and dead cell number by flow cytometry. […]
To test the effect of substrate mechanics on EV secretion from MSCs, hydrogel substrates were engineered which were composed of alginate polymer conjugated with the cell adhesion peptide Arg-Gly-Asp (RGD) that binds primarily to αvβ3 and α5β1 integrins. […] After centrifugation of the medium at 10,000 g to remove cell, apoptotic, and larger particle fractions, particles remaining in the medium were analyzed by nanoparticle tracking analysis and normalized to the number of live adhered cells counted by flow cytometry (see Methods). […]

| Compound | particle size |
| --- | --- |
| [Cl][Mn][Cl] [MnCl2] | Neither treatment significantly affected |
| CC(C)[C@H]1C(=O)N[C@@H](CCCN=C(N)N)C(=O)NCC(=O)N[C@@H](CC(=O)O)C(=O)N[C@H](Cc2ccccc2)C(=O)N1C [EMD 121974] | Neither treatment significantly affected |

From patent publication US20230279379A1, “METHODS AND MICROFLUIDIC DEVICE FOR PRODUCING EXTRACELLULAR VESICLES” (THE BOARD OF TRUSTEES OF THE UNIVERSITY OF ILLINOIS, priority 2022, published 2023)
